## Drug screen on melanoma cell lines: apoptosis marker

Source: doi:10.1371/journal.pone.0140310, primary screening data, rounded.

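Human melanoma cell lines in 1,536-well plates were treated with a pair of drugs for 72 h, then fixed, stained and imaged. The read-out is the fraction of cleaved-PARP-positive nuclei, in % of that fraction in the DMSO control; 200 means twice the control level of this apoptosis marker. Every drug was used at one fixed concentration, the higher of two screened. No replicate spread is given; individual values may be noisy. Basal and induced levels differ widely between cell lines.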 An unselected part of the screen is shown.

Drug key:
OSI-906 (2000 nM): C[C@]1(O)C[C@@H](c2nc(-c3ccc4ccc(-c5ccccc5)nc4c3)c3c(N)nccn32)C1
vatalanib (10000 nM): Clc1ccc(Nc2nnc(Cc3ccncc3)c3ccccc23)cc1
YM155 (2 nM): COCC[n+]1c2c(n(Cc3cnccn3)c1C)C(=O)c1ccccc1C2=O
GSK650394 (800 nM): O=C(O)c1ccc(-c2c[nH]c3ncc(-c4ccccc4)cc23)cc1C1CCCC1
NVP-BEZ235 (20 nM): Cn1c(=O)n(-c2ccc(C(C)(C)C#N)cc2)c2c3cc(-c4cnc5ccccc5c4)ccc3ncc21
T0901317 (7000 nM): O=S(=O)(c1ccccc1)N(CC(F)(F)F)c1ccc(C(O)(C(F)(F)F)C(F)(F)F)cc1
BI-78D3 (1000 nM): O=c1[nH]nc(Sc2ncc([N+](=O)[O-])s2)n1-c1ccc2c(c1)OCCO2
PLX4720 (400 nM): CCCS(=O)(=O)Nc1ccc(F)c(C(=O)c2c[nH]c3ncc(Cl)cc23)c1F
OSU-03012 (5000 nM): NCC(=O)Nc1ccc(-n2nc(C(F)(F)F)cc2-c2ccc3c(ccc4ccccc43)c2)cc1
KU-55933 (5000 nM): O=c1cc(-c2cccc3c2Sc2ccccc2S3)oc(N2CCOCC2)c1
CX-4945 (2000 nM): O=C(O)c1ccc2c(c1)nc(Nc1cccc(Cl)c1)c1ccncc12

| Drugs | MZ2-MEL |
|---|---|
| OSI-906 + PLX4720 | 199 |
| GSK650394 + OSU-03012 | 165 |
| CX-4945 + OSU-03012 | 452 |
| GSK650394 + KU-55933 | 57.3 |
| BI-78D3 + vatalanib | 162 |
| PLX4720 + CX-4945 | 148 |
| YM155 + PLX4720 | 472 |
| BI-78D3 + GSK650394 | 123 |
| GSK650394 + PLX4720 | 331 |
| vatalanib + T0901317 | 40.0 |
| NVP-BEZ235 + BI-78D3 | 67.6 |
| KU-55933 + CX-4945 | 119 |
| KU-55933 + YM155 | 540 |
| KU-55933 + NVP-BEZ235 | 81.3 |
| OSU-03012 + PLX4720 | 245 |
| CX-4945 + OSI-906 | 186 |
| vatalanib + OSU-03012 | 323 |
| vatalanib + KU-55933 | 120 |
| OSI-906 + OSU-03012 | 177 |
| T0901317 + GSK650394 | 70.8 |
| BI-78D3 + PLX4720 | 105 |
| CX-4945 + T0901317 | 185 |
| CX-4945 + GSK650394 | 233 |
| YM155 + T0901317 | 435 |
| T0901317 + OSU-03012 | 291 |
| KU-55933 + OSI-906 | 94.5 |
| BI-78D3 + CX-4945 | 180 |
| T0901317 + PLX4720 | 119 |
| OSI-906 + T0901317 | 38.1 |
| vatalanib + CX-4945 | 235 |
| YM155 + OSU-03012 | 478 |
| NVP-BEZ235 + T0901317 | 60.8 |
| KU-55933 + OSU-03012 | 122 |
| BI-78D3 + KU-55933 | 113 |
| GSK650394 + OSI-906 | 58.8 |
| BI-78D3 + YM155 | 381 |
| vatalanib + OSI-906 | 139 |
| CX-4945 + YM155 | 604 |
| BI-78D3 + OSI-906 | 202 |

The first 3 entries again:

{"drugs": "OSI-906 + PLX4720", "MZ2-MEL": 199}
{"drugs": "GSK650394 + OSU-03012", "MZ2-MEL": 165}
{"drugs": "CX-4945 + OSU-03012", "MZ2-MEL": 452}